Results on one compound are retold here after patent US20130324533A1, “METHOD OF DETECTING RESISTANCE TO CANCER THERAPY” (NATIONAL UNIVERSITY OF SINGAPORE, priority 2010, published 2013).

The term IC50 denotes the concentration that gives 50% inhibition.

Common to all, as to test: cells
The subject of one test is NCO2 cells. The settings on record: Homo sapiens, read-out: IC50 of cell line treated with imatinib. As to the method: (§1) Apoptosis was measured using the Annexin V-FITC/7-AAD kit (Beckman Coulter) according to the manufacturer's instructions. Briefly, treated and untreated cells were Annexin V-FITC- and 7-AAD-stained in 1× binding buffer for 15 min at room temperature and then analyzed by flow cytometry.

The subject of another test is KCL22 cells. The settings on record: Homo sapiens, KCL-22, read-out: IC50 of cell line treated with imatinib. As to the method: as §1
Another test deals with KYO-1 cells. The settings on record: Homo sapiens, KYO1, read-out: IC50 of cell line treated with imatinib. As to the method:
as §1

For `Cc1ccc(NC(=O)c2ccc(CN3CCN(C)CC3)cc2)cc1Nc1nccc(-c2cccnc2)n1` [imatinib], the IC50 is 340 nM with NCO2 cells, greater than 10000 nM in the test with KCL22 cells and 270 nM in the test with KYO-1 cells.
